The assay has as its system BDF1 mice, B16 melanoma ip, median survival T/C. In words: NCI In Vivo Anticancer Drug Screen. Data for tumor model B16 Melanoma (intraperitoneal) in B6D2F1 (BDF1) mice. To be noted: T/C endpoint: median survival time, higher T/C = longer survival. In a few lines:
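Read-out: survival or tumor size, given as treated/control ratio. Controls received vehicle only; animals bore transplantable tumors.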

[1] abbreviates: dose: 12.5 mg/kg/injection, schedule: Q01DX009 (ip), vehicle: saline.
Setting [2] is: dose: 50.0 mg/kg/injection, schedule: Q01DX009 (ip), vehicle: saline with Tween-80.
Where [3] appears, read: dose: 100.0 mg/kg/injection, schedule: Q01DX009 (ip), vehicle: saline with Tween-80.
The mark [4] stands for this setting: dose: 200.0 mg/kg/injection, schedule: Q04DX003 (ip), vehicle: saline with Tween-80.
[5] abbreviates: dose: 200.0 mg/kg/injection, schedule: Q01DX009 (ip), vehicle: saline with Tween-80.
The mark [6] stands for this setting: dose: 400.0 mg/kg/injection, schedule: Q01DX009 (ip), vehicle: saline with Tween-80.
Where [7] appears, read: dose: 200.0 mg/kg/injection, schedule: Q01DX009 (ip), vehicle: water.
Setting [8] is: dose: 50.0 mg/kg/injection, schedule: Q01DX009 (ip), vehicle: saline.

Structures are written as SMILES. The list does not hold the whole screen: it gathers tests that were run many times, whatever their T/C, doses with no T/C, and many T/C values between a quarter and a half above the control. Further doses and runs are listed elsewhere. T/C gives the treated animals as a percentage of the vehicle group. Some doses have a count of surviving animals in place of a T/C: the source holds a T/C of zero for them, seemingly a mark for toxic or unscored doses. Some survivor counts are full or nearly so, which does not show that the dose was tolerated: survival well below the control is almost never listed, so the zero probably covers shortened survival too. Counts of survivors are from the toxicity check (mostly the fifth day) where no day follows; animals may have died later. Schedules are NCI's codes, read here as Q, the interval in days (D) or hours (H), X, the number of doses. Some entries were tested several times; their values stand side by side, smallest first. Where survival is the endpoint, this PubChem deposit counts one and a half times the control or more as active, and values a quarter to a half above the control carry no call in these data; other NCI protocols may use other cut-offs. Numbered stars: 1 amine (or outer) side, 2 acyl side, 3 side chain; on linkers, the order of the positions; unused ones are H or OH. Bridge positions count the residues as written; N and C are the ends. Square brackets hold non-standard residues; d marks the D form. Peptide text beside a SMILES is read from it. I, II: the chains in the order shown. Actinocin(1to9) = Cc1c2oc3c(C)ccc(C(=O)[*:2])c3nc-2c(C(=O)[*:1])c(N)c1=O; NMeV = CN[CH](C(=O)O)C(C)C; Sar = CNCC(=O)O

`CC1(C)N=C(N)N=C(N)N1c1ccc(CCCCc2ccc(S(=O)(=O)F)cc2Cl)c(Cl)c1`: the T/C (dose: 6.25 mg/kg/injection, schedule: Q01DX009 (ip), vehicle: saline with Tween-80) is 147 % of control; the T/C (dose: 6.25 mg/kg/injection, schedule: Q01DX009 (ip), vehicle: saline) was 131 % of control; the T/C (dose: 12.5 mg/kg/injection, schedule: Q01DX009 (ip), vehicle: saline with Tween-80) was 137 % of control; the T/C under setting [1] is 136 % of control; the T/C (dose: 25.0 mg/kg/injection, schedule: Q01DX009 (ip), vehicle: saline with Tween-80) was 138 % of control; the T/C (dose: 37.5 mg/kg/injection, schedule: Q04DX003 (ip), vehicle: saline) was 142 % of control. Further, for the setting “dose: 75.0 mg/kg/injection, schedule: Q04DX003 (ip), vehicle: saline”, the T/C was 148 % of control. The survivor count reads like this: under setting [2], 6 of 6; under setting [3], 6 of 6; under setting [4], 6 of 6; (dose: 300.0 mg/kg/injection, schedule: Q04DX003 (ip), vehicle: saline with Tween-80) 6 of 6; (dose: 450.0 mg/kg/injection, schedule: Q04DX003 (ip), vehicle: saline with Tween-80) 5 of 6.

Regarding `O=C(O)CNC(=O)c1ccc([N+](=O)[O-])cc1`, the survivor count was 6 of 6 under setting [5] and 5 of 6 under setting [6].

For `CS(=O)(=O)Nc1ccc(Nc2c3ccccc3nc3cc([N+](=O)[O-])ccc23)cc1`, the T/C runs as follows: (dose: 1.25 mg/kg/injection, schedule: Q01DX009 (ip), vehicle: saline sonified) 137 % of control; (dose: 3.13 mg/kg/injection, schedule: Q01DX001 (ip), vehicle: saline sonified) 126 % of control; (dose: 6.25 mg/kg/injection, schedule: Q01DX001 (ip), vehicle: saline sonified) 132 % of control; (dose: 12.5 mg/kg/injection, schedule: Q01DX001 (ip), vehicle: saline sonified) 145 % of control; (dose: 25.0 mg/kg/injection, schedule: Q01DX001 (ip), vehicle: saline sonified) 147 % of control; (dose: 75.0 mg/kg/injection, schedule: Q01DX001 (ip), vehicle: saline sonified) 147 % of control. The survivor count is on record as 10 of 10 (dose: 5.0 mg/kg/injection, schedule: Q01DX009 (ip), vehicle: saline sonified); 9 of 10 (dose: 10.0 mg/kg/injection, schedule: Q01DX009 (ip), vehicle: saline sonified); 10 of 10 (dose: 100.0 mg/kg/injection, schedule: Q01DX001 (ip), vehicle: saline sonified).

Turning to `Nc1ncnc2c1ncn2C1OC(CO)CC1O` (centres undefined), the survivor count is, setting by setting: (dose: 150.0 mg/kg/injection, schedule: Q01DX009 (ip), vehicle: Klucel (hydroxypropylcellulose) (HPC)) 7 of 10 and 9 of 10; (dose: 300.0 mg/kg/injection, schedule: Q01DX009 (ip), vehicle: Klucel (hydroxypropylcellulose) (HPC)) 6 of 10 and 8 of 10.

On to `Cc1cc(Cl)ccc1NS(=O)(=O)c1ccccc1`, for which the survivor count (dose: 400.0 mg/kg/injection, schedule: Q01DX009 (ip), vehicle: Klucel (hydroxypropylcellulose) (HPC)) was 10 of 10.

On to `O=C(NC(CSC(c1ccccc1)c1ccccc1)C(=O)O)OCc1ccccc1` (centres undefined), for which the survivor count (dose: 100.0 mg/kg/injection, schedule: Q01DX009 (ip), vehicle: Klucel (hydroxypropylcellulose) (HPC)) is 8 of 10.

Consider `O=C1/C(=C/c2ccc([N+](=O)[O-])cc2)CCc2ccccc21`, for which, under setting [7], the survivor count is given as 10 of 10.

With `CCCCCCCCSCCO`, the survivor count under setting [2] is recorded as 10 of 10.

For the compound `CNC(=O)c1cccc2c(Nc3ccc(NS(C)(=O)=O)cc3OC)c3cccc(C)c3nc12`, the T/C (dose: 0.75 mg/kg/injection, schedule: Q01DX009 (ip), vehicle: water) is 136 % of control. Further, the survivor count by setting is: (dose: 6.0 mg/kg/injection, schedule: Q01DX009 (ip), vehicle: water) 10 of 10; (dose: 12.0 mg/kg/injection, schedule: Q01DX009 (ip), vehicle: water) 10 of 10; (dose: 12.5 mg/kg/injection, schedule: Q01DX009 (ip), vehicle: water) 9 of 10; (dose: 25.0 mg/kg/injection, schedule: Q01DX009 (ip), vehicle: water) 7 of 10; (dose: 50.0 mg/kg/injection, schedule: Q01DX009 (ip), vehicle: water) 5 of 10; (dose: 100.0 mg/kg/injection, schedule: Q01DX009 (ip), vehicle: water) 4 of 10. Further, under setting [7], the survivor count is on record as 1 of 10.

As for `CCCC[P+](c1ccccc1)(c1ccccc1)c1ccccc1`, the survivor count under setting [1] is 6 of 6 and the survivor count under setting [8] is reported as 6 of 6.

For the compound `CCC1(c2ccccc2)SC(=O)NC1=O` (centres undefined), the survivor count by setting is: under setting [5], 8 of 10; under setting [6], 5 of 10.

Consider `COc1ccc(Br)cc1`, for which the survivor count under setting [5] is listed as 10 of 10.

Consider `Cc1cc(=O)[nH]c2c1C(=O)c1c(C)cc(=O)n(C)c1C2=O`, for which the survivor count (dose: 5.0 mg/kg/injection, schedule: Q04DX003 (ip), vehicle: Klucel (hydroxypropylcellulose) (HPC)) is 10 of 10.

Consider `O=C1NC2C(NC(=O)N2Cl)N1Cl` (centres undefined), for which the survivor count is, setting by setting: under setting [2], 10 of 10; under setting [8], 9 of 10; (dose: 50.0 mg/kg/injection, schedule: Q04DX003 (ip), vehicle: saline with Tween-80) 10 of 10; under setting [3], 4 of 10; (dose: 100.0 mg/kg/injection, schedule: Q04DX003 (ip), vehicle: saline with Tween-80) 9 of 10; under setting [4], 2 of 10.

Turning to `CN(C)CCCN1c2ccccc2Sc2ccccc21`, the survivor count (dose: 75.0 mg/kg/injection, schedule: Q01DX009 (ip), vehicle: saline) is 0 of 10.

Take `CC1(C)N=C(N)N=C(N)N1c1ccc(OCCOc2ccc(S(=O)(=O)F)cc2)c(Cl)c1`: the T/C was 128 % of control (dose: 50.0 mg/kg/injection, schedule: Q04DX003 (ip), vehicle: saline) and 142 % of control (dose: 100.0 mg/kg/injection, schedule: Q04DX003 (ip), vehicle: saline). Besides, the survivor count (dose: 200.0 mg/kg/injection, schedule: Q04DX003 (ip), vehicle: saline) is 6 of 6.

For `C[N+](C)(C)CC(=O)[O-]`, the survivor count (dose: 200.0 mg/kg/injection, schedule: Q01DX009 (ip), vehicle: saline) is given as 10 of 10.

As for `CCC(C)C1NC(=O)C(NC(=O)c2c3nc4c(C(=O)NC5C(=O)NC(C(C)CC)C(=O)N6CCCC6C(=O)N(C)CC(=O)N(C)C(C(C)C)C(=O)OC5C)ccc(C)c4oc-3c(C)c(=O)c2N)C(C)OC(=O)C(C(C)C)N(C)C(=O)CN(C)C(=O)C2CCCN2C1=O` (centres undefined) (I: TIP[Sar][NMeV] / II: TIP[Sar][NMeV]; ester I:1-I:C, II:1-II:C; linker I:N-II:N via Actinocin(1to9); configuration not given here), the survivor count reads like this: (dose: 1.6 mg/kg/injection, schedule: Q01DX001 (ip), vehicle: water) 5 of 10; (dose: 100.0 micrograms/kg/injection, schedule: Q01DX009 (ip), vehicle: water) 10 of 10; (dose: 600.0 micrograms/kg/injection, schedule: Q04DX003 (ip), vehicle: water) 10 of 10. For the same compound, the T/C is, setting by setting: (dose: 50.0 micrograms/kg/injection, schedule: Q01DX009 (ip), vehicle: water) 136 % of control; (dose: 300.0 micrograms/kg/injection, schedule: Q04DX003 (ip), vehicle: water) 125 % of control.

The record behind these values is PubChem BioAssay AID192 (DTP/NCI, 2004).
